The values below come from PMC11497104.

Protein sequences, listed by entry. Tags and fused reporters are not part of them. Lines headed by an entry give the natural chain unless they say otherwise; changes in a name come on top. Residues count along the entry.
UniProt Q00987: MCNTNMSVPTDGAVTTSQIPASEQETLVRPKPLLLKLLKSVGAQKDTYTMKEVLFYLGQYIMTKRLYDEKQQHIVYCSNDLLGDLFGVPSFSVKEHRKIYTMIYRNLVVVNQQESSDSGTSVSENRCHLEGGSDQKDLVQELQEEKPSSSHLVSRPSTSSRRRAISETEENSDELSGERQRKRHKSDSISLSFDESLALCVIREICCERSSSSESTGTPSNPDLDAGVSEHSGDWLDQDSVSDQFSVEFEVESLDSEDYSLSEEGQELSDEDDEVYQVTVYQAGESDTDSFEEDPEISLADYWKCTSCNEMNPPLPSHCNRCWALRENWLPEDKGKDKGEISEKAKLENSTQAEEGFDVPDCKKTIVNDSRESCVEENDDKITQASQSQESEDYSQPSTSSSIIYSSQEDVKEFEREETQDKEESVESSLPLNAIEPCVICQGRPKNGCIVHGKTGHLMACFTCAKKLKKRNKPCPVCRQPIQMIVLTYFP
His-MDM2-ΔN (1-108aa): residues 109-491 of Q00987

No constants are given. Whether binding was seen depends on the method and setting. In cells and extracts the contact can be indirect. Some binding calls cover weakened binding; strength is not graded here. For some assays here: Tags and fused reporters may be left off the sequences shown.

In one assay the target is His-MDM2-ΔN (1-108aa) (UniProt Q00987). The assay is described as follows: co-IP; HEK293 cells co-transfected with Flag-Fgf12 and His-MDM2 (WT or deletion mutants), 48 h; lysates precipitated with anti-His or anti-Flag antibody, blotted for the other tag.
The target of assay [1] is His-tagged MDM2 (His-MDM2-WT) (UniProt Q00987). The description is as above.
Assay [2] addresses MDM2 in HEK293 cells (Figure S10G) (UniProt Q00987). In words: co-IP; HEK293 cells overexpressing FGF12 (Figure S10G); details not shown.
Assay [3] has as its target MDM2 (endogenous, keratinocytes) (human (endogenous in HaCaT and NHEK)) (UniProt Q00987). In words: co-IP; HaCaT cells transfected with Flag-Fgf12 plasmid (0, 2, 4 µg), M5 for 12 h, MG132 10 µM for 6 h; precipitated with anti-MDM2, blotted with anti-β-Trcp, anti-MDM2, anti-Flag.
Assay [4] shares this target. The assay is described as follows: co-IP; endogenous proteins, HaCaT lysates; precipitated with anti-MDM2 (IgG as control) or anti-FGF12; untreated, M5 for 0, 12, 24, 48 h, or si-Scr/si-Fgf12.

B1: Flag-tagged FGF12 (fibroblast growth factor 12) (protein, UniProt P61328 1-243)
chain: MAAAIASSLIRQKRQARESNSDRVSASKRRSSPSKDGRSLCERHVLGVFSKVRFCSGRKRPVRRRPEPQLKGIVTRLFSQQGYFLQMHPDGTIDGTKDENSDYTLFNLIPVGLRVVAIQGVKASLYVAMNGEGYLYSSDVFTPECKFKESVFENYYVIYSSTLYRQQESGRAWFLGLNKEGQIMKGNRVKKTKPSSHFVPKPIEVCMYREPSLHEIGEKQGRSRKSSGTPTMNGGKVVNQDST
Turning to B1, the binding entry (with His-MDM2-ΔN (1-108aa); in assay [1]; in assay [2]) was “binds” each time.

B2: Flag-tagged FGF12 expressed in HaCaT cells (protein, UniProt P61328 1-243)
chain: B1 chain
As to B2, in assay [3], the binding result is “binds”.

B3: FGF12 (endogenous, keratinocytes) (protein, UniProt P61328 1-243)
chain: B1 chain
Regarding B3, the binding entry in assay [4] is “binds”.
